No constants are given. Whether binding was seen depends on the method and setting. For part of these data: In cells and extracts the contact can be indirect. Some results given as binding are weak or reduced against the parent protein; the word gives no strength. For part of these data: Sequences can lack the tags named with a protein.
T1: hexa-HA-tagged Prp4p (S. cerevisiae) (UniProt P20053)
T1 sequence: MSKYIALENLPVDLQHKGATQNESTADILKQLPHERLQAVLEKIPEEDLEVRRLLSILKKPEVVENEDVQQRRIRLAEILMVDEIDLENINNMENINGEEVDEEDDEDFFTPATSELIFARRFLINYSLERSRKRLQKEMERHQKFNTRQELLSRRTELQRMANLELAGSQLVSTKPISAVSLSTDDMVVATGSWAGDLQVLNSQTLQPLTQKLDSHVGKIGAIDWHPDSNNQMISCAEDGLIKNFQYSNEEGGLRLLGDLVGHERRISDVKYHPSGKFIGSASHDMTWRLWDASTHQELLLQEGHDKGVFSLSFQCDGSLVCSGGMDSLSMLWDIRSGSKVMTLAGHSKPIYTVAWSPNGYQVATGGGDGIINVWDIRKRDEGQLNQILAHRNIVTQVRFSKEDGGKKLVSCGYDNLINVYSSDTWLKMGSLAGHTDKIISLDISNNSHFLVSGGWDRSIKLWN

By UniProt entry, the sequences of proteins in these tests, tags left out.
UniProt P33334: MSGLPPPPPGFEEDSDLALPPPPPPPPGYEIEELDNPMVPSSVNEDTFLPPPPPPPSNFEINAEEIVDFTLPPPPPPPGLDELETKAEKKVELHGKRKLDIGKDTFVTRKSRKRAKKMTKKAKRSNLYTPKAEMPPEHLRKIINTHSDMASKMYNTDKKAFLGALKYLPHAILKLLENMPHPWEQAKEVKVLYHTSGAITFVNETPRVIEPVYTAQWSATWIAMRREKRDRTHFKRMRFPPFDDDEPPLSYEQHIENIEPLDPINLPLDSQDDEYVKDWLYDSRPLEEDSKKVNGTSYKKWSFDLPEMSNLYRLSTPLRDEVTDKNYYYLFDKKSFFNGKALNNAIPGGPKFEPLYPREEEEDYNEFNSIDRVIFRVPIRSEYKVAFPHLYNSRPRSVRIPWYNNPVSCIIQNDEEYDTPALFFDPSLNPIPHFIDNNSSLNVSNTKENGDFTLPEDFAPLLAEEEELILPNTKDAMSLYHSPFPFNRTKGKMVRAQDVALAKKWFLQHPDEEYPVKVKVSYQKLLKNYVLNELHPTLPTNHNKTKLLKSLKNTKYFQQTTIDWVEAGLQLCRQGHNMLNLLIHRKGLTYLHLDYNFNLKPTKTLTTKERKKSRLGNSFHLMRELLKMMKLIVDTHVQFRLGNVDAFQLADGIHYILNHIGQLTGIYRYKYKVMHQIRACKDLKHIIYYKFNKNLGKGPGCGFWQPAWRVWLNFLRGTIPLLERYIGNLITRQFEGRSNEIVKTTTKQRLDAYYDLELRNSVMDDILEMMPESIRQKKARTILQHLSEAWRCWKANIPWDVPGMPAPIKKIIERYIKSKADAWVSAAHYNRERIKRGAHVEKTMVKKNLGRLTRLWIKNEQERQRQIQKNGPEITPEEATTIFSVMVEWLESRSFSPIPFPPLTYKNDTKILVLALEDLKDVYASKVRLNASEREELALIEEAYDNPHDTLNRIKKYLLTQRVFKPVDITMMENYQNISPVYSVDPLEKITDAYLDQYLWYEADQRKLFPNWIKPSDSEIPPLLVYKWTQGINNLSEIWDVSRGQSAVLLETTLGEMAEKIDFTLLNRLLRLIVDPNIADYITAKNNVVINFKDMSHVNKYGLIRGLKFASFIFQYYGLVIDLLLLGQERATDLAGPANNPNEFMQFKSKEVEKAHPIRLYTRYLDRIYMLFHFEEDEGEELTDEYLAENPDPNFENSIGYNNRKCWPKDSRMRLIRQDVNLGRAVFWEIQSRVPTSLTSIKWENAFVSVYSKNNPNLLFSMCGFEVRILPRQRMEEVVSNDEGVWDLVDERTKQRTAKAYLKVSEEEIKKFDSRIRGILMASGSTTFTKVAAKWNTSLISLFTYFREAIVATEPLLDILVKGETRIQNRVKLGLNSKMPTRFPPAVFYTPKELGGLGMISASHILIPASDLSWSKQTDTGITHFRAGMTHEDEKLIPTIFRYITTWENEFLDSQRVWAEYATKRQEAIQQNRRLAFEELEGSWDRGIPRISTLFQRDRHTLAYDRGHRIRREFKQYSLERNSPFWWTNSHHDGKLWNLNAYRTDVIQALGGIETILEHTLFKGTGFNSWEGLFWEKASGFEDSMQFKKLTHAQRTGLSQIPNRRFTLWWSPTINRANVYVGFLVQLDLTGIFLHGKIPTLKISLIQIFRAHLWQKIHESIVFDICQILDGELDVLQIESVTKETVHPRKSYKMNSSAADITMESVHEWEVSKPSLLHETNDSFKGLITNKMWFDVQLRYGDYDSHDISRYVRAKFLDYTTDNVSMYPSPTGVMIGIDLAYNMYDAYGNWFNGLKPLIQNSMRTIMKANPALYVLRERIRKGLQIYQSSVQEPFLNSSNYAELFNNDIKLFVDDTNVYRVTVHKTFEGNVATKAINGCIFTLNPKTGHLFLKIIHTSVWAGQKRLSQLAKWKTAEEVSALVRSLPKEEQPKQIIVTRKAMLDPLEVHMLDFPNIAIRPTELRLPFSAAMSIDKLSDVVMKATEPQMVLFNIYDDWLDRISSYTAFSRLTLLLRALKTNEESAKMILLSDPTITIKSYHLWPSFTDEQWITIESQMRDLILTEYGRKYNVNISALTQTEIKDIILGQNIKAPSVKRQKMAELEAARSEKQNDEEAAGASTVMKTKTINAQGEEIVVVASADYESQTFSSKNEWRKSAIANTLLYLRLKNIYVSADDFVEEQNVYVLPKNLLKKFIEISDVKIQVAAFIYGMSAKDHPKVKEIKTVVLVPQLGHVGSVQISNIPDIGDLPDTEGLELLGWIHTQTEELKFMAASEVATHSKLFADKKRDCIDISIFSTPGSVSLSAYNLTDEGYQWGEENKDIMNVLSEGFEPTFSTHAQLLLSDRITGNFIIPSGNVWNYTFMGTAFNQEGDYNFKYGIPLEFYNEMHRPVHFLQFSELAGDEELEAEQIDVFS

T2: Rrp47-TAP (S. cerevisiae) (UniProt P38801)
T2 sequence: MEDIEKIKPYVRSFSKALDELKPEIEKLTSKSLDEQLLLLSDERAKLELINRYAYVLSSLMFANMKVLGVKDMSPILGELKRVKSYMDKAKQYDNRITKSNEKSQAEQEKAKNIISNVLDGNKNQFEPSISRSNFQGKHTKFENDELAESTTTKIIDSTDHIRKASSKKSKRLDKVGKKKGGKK

T3: Rrp4p (S. cerevisiae) (UniProt P38792)
T3 sequence: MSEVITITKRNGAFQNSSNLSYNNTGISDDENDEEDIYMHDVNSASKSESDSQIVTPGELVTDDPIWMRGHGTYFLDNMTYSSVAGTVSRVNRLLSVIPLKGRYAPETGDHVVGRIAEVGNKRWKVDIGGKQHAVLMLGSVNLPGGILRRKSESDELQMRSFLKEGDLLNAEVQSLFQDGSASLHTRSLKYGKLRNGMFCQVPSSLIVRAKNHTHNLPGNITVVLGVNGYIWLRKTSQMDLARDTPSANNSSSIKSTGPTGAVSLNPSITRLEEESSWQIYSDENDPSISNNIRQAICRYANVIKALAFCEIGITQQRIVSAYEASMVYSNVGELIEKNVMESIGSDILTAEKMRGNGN


How the values were obtained:
[1] = target: T1, hexa-HA-tagged Prp4p (S. cerevisiae); assay: co-IP; immunopurification of the spliceosome: 1 mg extract of UV-irradiated WT (yBD608) and rrp6-Δ (yBD614) cells with genomically hexa-HA-tagged Prp4p, anti-HA antibody, protein A-agarose, 4°C; western blot
[2] = target: T2, Rrp47-TAP (S. cerevisiae); assay: SEC; Biogel P-200 gel filtration (0.2 M Tris-HCl pH 8.0, 0.2 M NaCl) of extract of UV-irradiated yeast expressing Rrp6-ΔC2 and Rrp47-TAP (yBD-527); fractions blotted with anti-Rrp4p, anti-Rrp6p and anti-TAP
[3] = target: T3, Rrp4p (S. cerevisiae); assay: as above
[4] = target: T2, Rrp47-TAP (S. cerevisiae); assay: condition: only in gel-filtration fractions 13-18 (legend: 11 to 18); co-IP; fractions 11 to 18 of the Biogel P-200 column (yBD-507 extract) precipitated with anti-TAP antibody and blotted with anti-TAP, anti-Rrp4p and anti-Mtr4p

binding [1] | Molecule | also measured
binds | Prp8p (from UniProt P33334 1-2413) | –
binds | Spp381p (protein, UniProt P38282 1-291) MSFRHFKRRLDTSSADESSSADEEHPDQNVSLTEKSASLSHSDLGGEILNGTGKNRTPNDGQESNESDGSPESDESPESEESSDNSDSSDSDDMRPLPRPLFMKKKANNLQKATKIDQPWNAQDDARVLQTKKENMIKNIDKANQVAKNYETMKLRLNTNYSTNEELIKQCLLLDDNDEVDSEKERQKWFERQNERKQKHRRIQLAKQRESEEYEAKRFEAMQKGKDGNTKYDVILDKEKEKLDHKKQRSAEKVEKSHNNNRYKITRTKNVEFGDLGKNSRDYEETEYSVI | –
no binding | Nrd1p (protein, UniProt P53617 1-575) MQQDDDFQNFVATLESFKDLKSGISGSRIKKLTTYALDHIDIESKIISLIIDYSRLCPDSHKLGSLYIIDSIGRAYLDETRSNSNSSSNKPGTCAHAINTLGEVIQELLSDAIAKSNQDHKEKIRMLLDIWDRSGLFQKSYLNAIRSKCFAMDISNNTANTASQQLSLDPKQRSKQILSNLKKSPPLNLNISLPTDLTSTDPAKQQAALFQVIAALQKHFKTLPSHTSVGTVAPPQAHTITEYGSRRERERERERYNSRRNRSRSPPAPFSQPSTGRKDRYPSVAQDQYSIGAPNTTFGTNNHHLYPDELNVSNNPHYRPKPVSYDSTLPPDHIKVYSRTLFIGGVPLNMKEWDLANVLKPFAEVQSVILNNSRKHAFVKVYSRHEAENVLQNFNKDGALPLRTRWGVGFGPRDCCDYQHGYSIIPMHRLTDADKKWSVSAQWGGTSGQPLVTGIVFEEPDIIVGEGVSSKAISQKMPTDSGRNGPRSGKPNKSGSISSISPVPYGNAPLASPPPQQYVQPMMQQPYGYAPNQPLPSQGPAAAAPPVPQQQFDPTAQLNSLMNMLNQQQQQQQQS | –
– | Rrp6p-ΔC2 (domain or fragment, UniProt Q12149 1-522) MTSENPDVLLSRVINVVRAASSLASQDVDFYKNLDRGFSKDLKSKADKLADMANEIILSIDEHHESFELKEEDISDLWNNFGNIMDNLLEMSDHSLDKLNCAINSKSRGSDLQYLGEFSGKNFSPTKRVEKPQLKFKSPIDNSESHPFIPLLKEKPNALKPLSESLRLVDDDENNPSHYPHPYEYEIDHQEYSPEILQIREEIPSKSWDDSVPIWVDTSTELESMLEDLKNTKEIAVDLEHHDYRSYYGIVCLMQISTRERDYLVDTLKLRENLHILNEVFTNPSIVKVFHGAFMDIIWLQRDLGLYVVGLFDTYHASKAIGLPRHSLAYLLENFANFKTSKKYQLADWRIRPLSKPMTAYARADTHFLLNIYDQLRNKLIESNKLAGVLYESRNVAKRRFEYSKYRPLTPSSEVYSPIEKESPWKILMYQYNIPPEREVLVRELYQWRDLIARRDDESPRFVMPNQLLAALVAYTPTDVIGVVSLTNGVTEHVRQNAKLLANLIRDALRNIKNTNEEATPI | binding [2]: binds; binding [3]: no binding
– | Rrp4p (protein, UniProt P38792 1-359) MSEVITITKRNGAFQNSSNLSYNNTGISDDENDEEDIYMHDVNSASKSESDSQIVTPGELVTDDPIWMRGHGTYFLDNMTYSSVAGTVSRVNRLLSVIPLKGRYAPETGDHVVGRIAEVGNKRWKVDIGGKQHAVLMLGSVNLPGGILRRKSESDELQMRSFLKEGDLLNAEVQSLFQDGSASLHTRSLKYGKLRNGMFCQVPSSLIVRAKNHTHNLPGNITVVLGVNGYIWLRKTSQMDLARDTPSANNSSSIKSTGPTGAVSLNPSITRLEEESSWQIYSDENDPSISNNIRQAICRYANVIKALAFCEIGITQQRIVSAYEASMVYSNVGELIEKNVMESIGSDILTAEKMRGNGN | binding [4]: no binding

Reference: publication PMC11115967
